The text below walks through data of the supplement of paper PMC6411743.

Sequences of proteins named here, by UniProt entry; tags and fusion partners are left off. A change or cut given only in a name is not applied to a line headed by its entry.
UniProt P61586, whole entry: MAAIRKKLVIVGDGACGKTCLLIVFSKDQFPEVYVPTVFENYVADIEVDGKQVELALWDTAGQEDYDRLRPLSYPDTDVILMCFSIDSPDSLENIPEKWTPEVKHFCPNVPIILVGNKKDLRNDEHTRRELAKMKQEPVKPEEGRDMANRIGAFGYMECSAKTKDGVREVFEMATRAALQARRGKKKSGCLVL
UniProt P50452: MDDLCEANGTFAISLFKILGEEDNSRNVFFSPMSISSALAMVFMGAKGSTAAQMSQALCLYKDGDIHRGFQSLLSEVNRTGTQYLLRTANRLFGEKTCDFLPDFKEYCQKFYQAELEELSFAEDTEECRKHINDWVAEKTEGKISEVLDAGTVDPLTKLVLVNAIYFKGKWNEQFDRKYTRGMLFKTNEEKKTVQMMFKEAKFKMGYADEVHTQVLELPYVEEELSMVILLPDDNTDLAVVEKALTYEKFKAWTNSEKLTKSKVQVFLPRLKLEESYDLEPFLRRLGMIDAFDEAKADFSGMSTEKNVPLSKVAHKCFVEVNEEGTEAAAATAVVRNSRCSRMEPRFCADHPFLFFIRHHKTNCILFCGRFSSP
UniProt P54136: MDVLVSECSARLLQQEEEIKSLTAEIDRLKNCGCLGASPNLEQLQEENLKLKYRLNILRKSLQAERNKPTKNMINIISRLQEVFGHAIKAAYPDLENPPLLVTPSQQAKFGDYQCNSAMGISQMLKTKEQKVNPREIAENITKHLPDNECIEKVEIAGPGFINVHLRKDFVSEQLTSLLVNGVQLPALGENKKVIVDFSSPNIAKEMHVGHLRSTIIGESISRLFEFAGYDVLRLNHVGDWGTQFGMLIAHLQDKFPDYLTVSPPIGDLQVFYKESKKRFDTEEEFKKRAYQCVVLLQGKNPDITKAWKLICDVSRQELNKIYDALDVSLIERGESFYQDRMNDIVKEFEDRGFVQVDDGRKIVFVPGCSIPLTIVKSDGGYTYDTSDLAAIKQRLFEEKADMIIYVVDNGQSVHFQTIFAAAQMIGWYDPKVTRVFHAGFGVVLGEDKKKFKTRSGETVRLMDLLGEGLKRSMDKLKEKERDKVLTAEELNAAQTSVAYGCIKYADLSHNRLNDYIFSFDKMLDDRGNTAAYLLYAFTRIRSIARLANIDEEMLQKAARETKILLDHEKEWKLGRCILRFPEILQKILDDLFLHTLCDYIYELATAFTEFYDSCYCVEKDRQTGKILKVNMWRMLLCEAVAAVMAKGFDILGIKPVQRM
UniProt P51809, whole entry: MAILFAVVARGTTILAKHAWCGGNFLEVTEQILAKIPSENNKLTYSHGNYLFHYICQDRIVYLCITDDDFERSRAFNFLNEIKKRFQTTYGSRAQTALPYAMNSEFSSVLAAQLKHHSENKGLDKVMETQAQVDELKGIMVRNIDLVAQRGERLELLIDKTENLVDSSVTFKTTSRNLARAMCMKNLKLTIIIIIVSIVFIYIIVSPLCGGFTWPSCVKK
UniProt P54098: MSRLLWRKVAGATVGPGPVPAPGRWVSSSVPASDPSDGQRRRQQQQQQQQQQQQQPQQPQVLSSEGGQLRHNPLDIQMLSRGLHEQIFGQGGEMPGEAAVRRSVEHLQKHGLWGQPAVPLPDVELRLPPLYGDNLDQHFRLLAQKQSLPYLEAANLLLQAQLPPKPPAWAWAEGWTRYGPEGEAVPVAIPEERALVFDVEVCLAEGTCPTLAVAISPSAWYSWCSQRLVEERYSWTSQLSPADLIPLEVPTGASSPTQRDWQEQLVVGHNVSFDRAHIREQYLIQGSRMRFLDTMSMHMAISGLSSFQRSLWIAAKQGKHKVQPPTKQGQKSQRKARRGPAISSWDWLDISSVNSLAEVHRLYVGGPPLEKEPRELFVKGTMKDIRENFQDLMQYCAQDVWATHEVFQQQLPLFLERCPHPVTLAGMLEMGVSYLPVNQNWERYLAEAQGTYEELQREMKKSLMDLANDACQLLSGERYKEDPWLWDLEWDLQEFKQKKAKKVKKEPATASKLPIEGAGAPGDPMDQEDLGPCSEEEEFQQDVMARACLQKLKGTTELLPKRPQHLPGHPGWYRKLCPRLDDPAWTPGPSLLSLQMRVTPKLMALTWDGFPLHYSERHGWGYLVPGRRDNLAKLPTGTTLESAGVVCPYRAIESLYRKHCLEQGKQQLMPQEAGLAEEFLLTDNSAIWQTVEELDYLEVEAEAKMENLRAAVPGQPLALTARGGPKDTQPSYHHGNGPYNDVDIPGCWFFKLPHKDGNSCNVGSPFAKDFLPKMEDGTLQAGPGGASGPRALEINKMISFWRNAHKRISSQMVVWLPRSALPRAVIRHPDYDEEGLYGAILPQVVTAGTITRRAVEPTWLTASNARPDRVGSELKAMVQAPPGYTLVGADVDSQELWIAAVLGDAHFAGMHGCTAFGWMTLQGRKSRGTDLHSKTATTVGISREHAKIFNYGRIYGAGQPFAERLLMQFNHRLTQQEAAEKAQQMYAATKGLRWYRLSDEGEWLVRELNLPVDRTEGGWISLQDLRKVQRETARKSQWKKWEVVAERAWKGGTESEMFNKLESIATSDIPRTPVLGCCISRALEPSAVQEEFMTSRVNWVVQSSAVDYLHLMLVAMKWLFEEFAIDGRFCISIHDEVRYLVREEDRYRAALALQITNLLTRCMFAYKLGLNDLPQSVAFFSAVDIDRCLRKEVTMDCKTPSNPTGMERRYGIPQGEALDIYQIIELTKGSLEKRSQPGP
UniProt P53609, whole entry, looked up: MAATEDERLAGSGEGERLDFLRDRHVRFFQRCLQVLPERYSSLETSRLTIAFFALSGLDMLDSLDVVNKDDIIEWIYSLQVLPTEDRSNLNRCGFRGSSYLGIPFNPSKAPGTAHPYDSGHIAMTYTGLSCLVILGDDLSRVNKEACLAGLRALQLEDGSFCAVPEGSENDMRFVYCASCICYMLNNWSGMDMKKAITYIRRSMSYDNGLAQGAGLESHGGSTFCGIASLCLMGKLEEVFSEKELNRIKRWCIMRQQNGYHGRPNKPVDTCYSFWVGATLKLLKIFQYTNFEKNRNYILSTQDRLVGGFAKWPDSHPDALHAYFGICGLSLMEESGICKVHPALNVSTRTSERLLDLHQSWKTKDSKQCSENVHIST
UniProt P56182: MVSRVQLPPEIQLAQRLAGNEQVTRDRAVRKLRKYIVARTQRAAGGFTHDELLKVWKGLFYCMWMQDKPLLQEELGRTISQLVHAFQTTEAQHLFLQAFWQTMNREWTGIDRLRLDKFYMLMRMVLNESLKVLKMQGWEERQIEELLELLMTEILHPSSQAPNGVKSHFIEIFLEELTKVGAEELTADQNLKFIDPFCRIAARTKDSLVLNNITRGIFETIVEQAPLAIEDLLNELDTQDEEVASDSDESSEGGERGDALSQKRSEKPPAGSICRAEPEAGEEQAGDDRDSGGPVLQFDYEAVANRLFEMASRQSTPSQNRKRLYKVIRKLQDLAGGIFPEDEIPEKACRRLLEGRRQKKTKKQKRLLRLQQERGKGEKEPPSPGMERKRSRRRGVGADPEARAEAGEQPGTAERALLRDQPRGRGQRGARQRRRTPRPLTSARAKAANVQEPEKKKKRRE
UniProt P62942, whole entry: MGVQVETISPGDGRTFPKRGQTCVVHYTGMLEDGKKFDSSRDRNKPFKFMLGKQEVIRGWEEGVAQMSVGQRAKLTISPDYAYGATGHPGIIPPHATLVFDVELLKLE
UniProt P61201: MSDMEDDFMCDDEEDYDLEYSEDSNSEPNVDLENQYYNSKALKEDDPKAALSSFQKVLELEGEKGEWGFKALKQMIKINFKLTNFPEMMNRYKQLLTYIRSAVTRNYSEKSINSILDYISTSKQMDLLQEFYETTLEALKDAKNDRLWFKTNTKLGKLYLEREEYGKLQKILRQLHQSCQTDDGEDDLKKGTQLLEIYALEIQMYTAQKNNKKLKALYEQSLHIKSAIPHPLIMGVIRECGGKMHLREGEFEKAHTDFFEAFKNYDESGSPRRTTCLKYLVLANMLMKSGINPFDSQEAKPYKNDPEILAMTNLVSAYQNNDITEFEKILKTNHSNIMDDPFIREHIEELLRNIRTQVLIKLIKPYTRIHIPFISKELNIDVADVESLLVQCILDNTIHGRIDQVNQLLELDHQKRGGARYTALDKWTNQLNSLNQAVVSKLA
UniProt P78316: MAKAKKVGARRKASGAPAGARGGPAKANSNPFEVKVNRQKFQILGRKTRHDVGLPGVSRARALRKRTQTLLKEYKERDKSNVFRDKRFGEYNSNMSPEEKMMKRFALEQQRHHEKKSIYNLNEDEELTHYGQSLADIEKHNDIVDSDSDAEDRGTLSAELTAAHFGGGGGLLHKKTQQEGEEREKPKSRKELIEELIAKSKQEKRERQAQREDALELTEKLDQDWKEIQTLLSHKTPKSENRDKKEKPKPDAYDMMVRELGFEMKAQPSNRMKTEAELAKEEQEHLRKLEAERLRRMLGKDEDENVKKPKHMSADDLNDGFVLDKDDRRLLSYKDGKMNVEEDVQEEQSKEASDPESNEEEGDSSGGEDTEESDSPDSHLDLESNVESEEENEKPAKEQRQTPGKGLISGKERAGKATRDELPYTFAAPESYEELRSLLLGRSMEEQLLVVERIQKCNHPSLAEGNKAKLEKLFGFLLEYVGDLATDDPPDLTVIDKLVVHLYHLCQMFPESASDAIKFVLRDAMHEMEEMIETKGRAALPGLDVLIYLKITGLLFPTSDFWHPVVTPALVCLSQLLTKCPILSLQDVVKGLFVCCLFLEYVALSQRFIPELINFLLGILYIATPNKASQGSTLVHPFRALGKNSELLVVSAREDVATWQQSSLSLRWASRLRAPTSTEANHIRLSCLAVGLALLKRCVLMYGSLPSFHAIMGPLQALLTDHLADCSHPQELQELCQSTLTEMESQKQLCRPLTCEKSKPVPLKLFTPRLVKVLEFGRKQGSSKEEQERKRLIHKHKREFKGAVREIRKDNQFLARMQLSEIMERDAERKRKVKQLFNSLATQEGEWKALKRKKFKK
UniProt P68036, whole entry: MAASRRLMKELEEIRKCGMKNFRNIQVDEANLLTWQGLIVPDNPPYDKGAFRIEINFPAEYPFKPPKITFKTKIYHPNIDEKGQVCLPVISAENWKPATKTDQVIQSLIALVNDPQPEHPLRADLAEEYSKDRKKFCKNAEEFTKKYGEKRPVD
UniProt P50749: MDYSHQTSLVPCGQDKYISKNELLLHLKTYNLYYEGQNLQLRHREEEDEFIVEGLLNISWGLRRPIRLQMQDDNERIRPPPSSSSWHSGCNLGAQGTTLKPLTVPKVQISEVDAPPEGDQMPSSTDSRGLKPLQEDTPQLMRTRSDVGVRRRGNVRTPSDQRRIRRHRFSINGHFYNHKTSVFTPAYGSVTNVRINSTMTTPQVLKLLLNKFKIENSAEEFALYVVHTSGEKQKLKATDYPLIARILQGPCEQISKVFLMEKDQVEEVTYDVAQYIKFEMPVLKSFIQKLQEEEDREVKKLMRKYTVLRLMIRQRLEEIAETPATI

Compound in this experiment: Nc1nc2c(ncn2[C@@H]2O[C@H](COP(=O)(O)OP(=O)(O)OP(=O)(O)O)[C@@H](O)[C@H]2O)c(=O)[nH]1 [guanosine triphosphate]
The experiment can be described thus: NP40-soluble protein abundance relative to vehicle (solubility fold change) (ratio); higher = more soluble protein in presence of GTP. Summed up:
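Each value is a fold change relative to the detergent-processed vehicle, calculated per replicate from vsn-normalised intensities. Jurkat crude lysate received eight concentrations (0.1 to 10 mM) for 10 min at room temperature and 3 min at 37 °C, then was solubilised in 0.8% NP40 with benzonase (60 min, 4 °C). The ultracentrifuged supernatant was TMT-labelled and run by LC-MS/MS in three independent experiments.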

± gives the standard deviation of the averaged measurements. The list shows a part of the results.

As to RHOA (UniProt P61586), the NP40-soluble protein abundance runs as follows: (concentration: 0.1mM) 0.912 ± 0.15; (concentration: 0.5mM) 0.965 ± 0.18; (concentration: 1mM) 1.01 ± 0.2; (concentration: 2mM) 0.94 ± 0.28; (concentration: 4mM) 0.911 ± 0.21; (concentration: 6mM) 0.959 ± 0.27. Moreover, the NP40-soluble protein abundance runs as follows: (concentration: 8mM) 0.967 ± 0.12; (concentration: 10mM) 0.945 ± 0.19.

On to SERPINB8 (UniProt P50452), for which the NP40-soluble protein abundance (concentration: 0.1mM) came to 0.997 ± 0.033; the NP40-soluble protein abundance (concentration: 0.5mM) was determined as 0.991 ± 0.029; the NP40-soluble protein abundance (concentration: 1mM) came to 0.93 ± 0.025; the NP40-soluble protein abundance (concentration: 2mM) worked out at 0.909 ± 0.025; the NP40-soluble protein abundance (concentration: 4mM) was found to be 0.892 ± 0.053; the NP40-soluble protein abundance (concentration: 6mM) was determined as 0.897 ± 0.03. Moreover, the NP40-soluble protein abundance by setting is: (concentration: 8mM) 0.856 ± 0.033; (concentration: 10mM) 0.843 ± 0.066.

Turning to RARS (UniProt P54136), the NP40-soluble protein abundance amounted to 1.11 ± 0.096 (concentration: 0.1mM); 1.17 ± 0.19 (concentration: 0.5mM); 1.12 ± 0.19 (concentration: 1mM); 1.23 ± 0.29 (concentration: 2mM); 1.28 ± 0.27 (concentration: 4mM); 1.26 ± 0.3 (concentration: 6mM). In addition, the NP40-soluble protein abundance was 1.22 ± 0.25 (concentration: 8mM) and 1.14 ± 0.25 (concentration: 10mM).

As to UniProt P51809 and related entries, the NP40-soluble protein abundance is 0.982 ± 0.021 (concentration: 0.1mM); 0.933 ± 0.039 (concentration: 0.5mM); 0.817 ± 0.015 (concentration: 1mM); 0.868 ± 0.061 (concentration: 2mM); 0.878 ± 0.042 (concentration: 4mM); 0.811 ± 0.052 (concentration: 6mM). In addition, the NP40-soluble protein abundance was determined as 0.778 ± 0.1 (concentration: 8mM) and 0.807 ± 0.09 (concentration: 10mM).

For POLG (UniProt P54098), the NP40-soluble protein abundance was 1.05 ± 0.13 (concentration: 0.1mM); 1.15 ± 0.089 (concentration: 0.5mM); 0.973 ± 0.034 (concentration: 1mM); 1.06 ± 0.13 (concentration: 2mM); 1.03 ± 0.14 (concentration: 4mM); 1 ± 0.084 (concentration: 6mM). The NP40-soluble protein abundance came to 0.948 ± 0.035 (concentration: 8mM) and 1 ± 0.11 (concentration: 10mM).

UniProt P53609 and related entries: the NP40-soluble protein abundance was 1.02 ± 0.025 (concentration: 0.1mM); 1.02 ± 0.05 (concentration: 0.5mM); 0.942 ± 0.019 (concentration: 1mM); 0.901 ± 0.039 (concentration: 2mM); 0.885 ± 0.011 (concentration: 4mM); 0.887 ± 0.024 (concentration: 6mM). For the same target, the NP40-soluble protein abundance is 0.861 ± 0.071 (concentration: 8mM) and 0.857 ± 0.058 (concentration: 10mM).

In the case of UniProt P54819 and related entries, the NP40-soluble protein abundance is 0.881 ± 0.047 (concentration: 0.1mM); 0.854 ± 0.028 (concentration: 0.5mM); 1 ± 0.072 (concentration: 1mM); 0.974 ± 0.075 (concentration: 2mM); 0.949 ± 0.073 (concentration: 4mM); 0.942 ± 0.095 (concentration: 6mM). Moreover, the NP40-soluble protein abundance (concentration: 8mM) amounted to 0.901 ± 0.13 and the NP40-soluble protein abundance (concentration: 10mM) worked out at 0.97 ± 0.082.

RRP1 (UniProt P56182): the NP40-soluble protein abundance by setting is: (concentration: 0.1mM) 1.03 ± 0.044; (concentration: 0.5mM) 0.968 ± 0.014; (concentration: 1mM) 1.03 ± 0.037; (concentration: 2mM) 1.04 ± 0.055; (concentration: 4mM) 1.07 ± 0.042; (concentration: 6mM) 1.02 ± 0.074. Moreover, the NP40-soluble protein abundance runs as follows: (concentration: 8mM) 1.04 ± 0.037; (concentration: 10mM) 1.07 ± 0.03.

Regarding UniProt P62701, the NP40-soluble protein abundance was determined as 1 ± 0.095 (concentration: 0.1mM); 1.08 ± 0.16 (concentration: 0.5mM); 1.08 ± 0.25 (concentration: 1mM); 1.03 ± 0.28 (concentration: 2mM); 0.925 ± 0.31 (concentration: 4mM); 0.89 ± 0.31 (concentration: 6mM). Besides, the NP40-soluble protein abundance (concentration: 8mM) was 0.828 ± 0.28 and the NP40-soluble protein abundance (concentration: 10mM) is 0.853 ± 0.31.

For FKBP1A (UniProt P62942), the NP40-soluble protein abundance is, setting by setting: (concentration: 0.1mM) 0.912 ± 0.023; (concentration: 0.5mM) 0.912 ± 0.023; (concentration: 1mM) 0.923 ± 0.015; (concentration: 2mM) 0.902 ± 0.028; (concentration: 4mM) 0.91 ± 0.069; (concentration: 6mM) 0.936 ± 0.062. The NP40-soluble protein abundance reads like this: (concentration: 8mM) 0.926 ± 0.063; (concentration: 10mM) 0.923 ± 0.065.

With UniProt P82912 and related entries, the NP40-soluble protein abundance was 1.14 ± 0.059 (concentration: 0.1mM); 1.15 ± 0.13 (concentration: 0.5mM); 1.3 ± 0.24 (concentration: 1mM); 1.32 ± 0.25 (concentration: 2mM); 1.43 ± 0.36 (concentration: 4mM); 1.3 ± 0.32 (concentration: 6mM). The NP40-soluble protein abundance (concentration: 8mM) worked out at 1.38 ± 0.39 and the NP40-soluble protein abundance (concentration: 10mM) was 1.24 ± 0.35.

Turning to UniProt P61201 and related entries, the NP40-soluble protein abundance by setting is: (concentration: 0.1mM) 0.983 ± 0.068; (concentration: 0.5mM) 0.973 ± 0.06; (concentration: 1mM) 0.995 ± 0.045; (concentration: 2mM) 0.967 ± 0.058; (concentration: 4mM) 0.986 ± 0.053; (concentration: 6mM) 0.97 ± 0.07. For the same target, the NP40-soluble protein abundance was 0.999 ± 0.072 (concentration: 8mM) and 0.953 ± 0.059 (concentration: 10mM).

As for NOP14 (UniProt P78316), the NP40-soluble protein abundance amounted to 0.965 ± 0.029 (concentration: 0.1mM); 0.948 ± 0.06 (concentration: 0.5mM); 0.984 ± 0.034 (concentration: 1mM); 0.961 ± 0.056 (concentration: 2mM); 0.953 ± 0.021 (concentration: 4mM); 0.96 ± 0.03 (concentration: 6mM). The NP40-soluble protein abundance is 0.998 ± 0.045 (concentration: 8mM) and 1.02 ± 0.034 (concentration: 10mM).

In the case of UniProt P68036 and related entries, the NP40-soluble protein abundance reads like this: (concentration: 0.1mM) 0.857 ± 0.083; (concentration: 0.5mM) 0.834 ± 0.037; (concentration: 1mM) 0.99 ± 0.077; (concentration: 2mM) 0.961 ± 0.041; (concentration: 4mM) 0.909 ± 0.087; (concentration: 6mM) 0.951 ± 0.081. Further, the NP40-soluble protein abundance is, setting by setting: (concentration: 8mM) 0.877 ± 0.16; (concentration: 10mM) 0.976 ± 0.15.

RASSF2 (UniProt P50749): the NP40-soluble protein abundance is, setting by setting: (concentration: 0.1mM) 1.04 ± 0.054; (concentration: 0.5mM) 1.03 ± 0.096; (concentration: 1mM) 1.02 ± 0.079; (concentration: 2mM) 1.02 ± 0.11; (concentration: 4mM) 0.98 ± 0.1; (concentration: 6mM) 0.942 ± 0.051. The NP40-soluble protein abundance (concentration: 8mM) stood at 0.97 ± 0.094 and the NP40-soluble protein abundance (concentration: 10mM) was determined as 0.929 ± 0.12.
